The values below come from article PMC11361659.

For at least one entry, the source does not settle the construct or the ends of the probe. Results from cells or extracts need not show a direct contact. For part of these data: At least one verdict was read from the data and is not stated in words by the source. For part of these data: Where a protein sequence is shown, tags need not be part of it.

Data set [1] has as its system TsTAF6 + TsTAF9. The data set is described as follows: EMSA. The following applies: nuclear extract, no supershift on this probe, 5 mM Mg2+; 50 mM Tris-HCl (pH not stated), 250 mM NaCl, 5 mM MgCl2, 2.5 mM EDTA, 2.5 mM DTT (printed DDT), 20% glycerol, 1 ug poly(dI-dC), 50 fmol probe, 5 or 10 ug nuclear extract; protein in an extract; label: 32P or GelRed.
The target of data set [2] is T1, TsTBP1 (Taenia solium (cysticerci)) (UniProt A0A0N7FYW4).
T1 sequence (looked up, limits assumed): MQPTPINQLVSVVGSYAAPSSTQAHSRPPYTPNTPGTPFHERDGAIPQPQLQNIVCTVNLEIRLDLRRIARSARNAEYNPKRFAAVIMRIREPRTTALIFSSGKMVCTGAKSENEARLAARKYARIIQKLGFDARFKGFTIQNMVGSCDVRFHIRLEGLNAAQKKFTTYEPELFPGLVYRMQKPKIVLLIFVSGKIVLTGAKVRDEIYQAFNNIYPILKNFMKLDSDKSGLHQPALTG
The data set is described as follows: EMSA supershift. The following applies: anti-TsTBP1-N, 5 mM Mg2+; 50 mM Tris-HCl (pH not stated), 250 mM NaCl, 5 mM MgCl2, 2.5 mM EDTA, 2.5 mM DTT (printed DDT), 20% glycerol, 1 ug poly(dI-dC), 50 fmol probe, 5 or 10 ug nuclear extract; protein in an extract; label: 32P or GelRed.

Data set [3] concerns TsTAF6 + TsTAF9. The data set is described as follows: EMSA supershift. The following applies: anti-TAF6 or anti-TAF9, separate lanes, 5 mM Mg2+; 50 mM Tris-HCl (pH not stated), 250 mM NaCl, 5 mM MgCl2, 2.5 mM EDTA, 2.5 mM DTT (printed DDT), 20% glycerol, 1 ug poly(dI-dC), 50 fmol probe, 5 or 10 ug nuclear extract; protein in an extract; label: 32P or GelRed.

For the sequence “GAGCCGAGTGGTTGTGCCTCCATAG (double strand) [Consensus DPE probe (DmDPE)]”, the binding result with TsTAF6 + TsTAF9 [1] was “binds”.
As to “GCGCTTCGCTATATTTGGCGGTAAG (double strand) [Ts2-CysPrx TATA-box]”, the binding result in data set [2] was “binds”.
For “TCCGGGTTCTGTCGAGCAGATGCAG (double strand) [Tstbp1-DPE probe]”, in the data set on TsTAF6 + TsTAF9 [3], the binding result is given as “binds”.
